The list does not hold the whole screen: it is rich in T/C values a quarter to a half above the control, in often repeated tests (any T/C) and in doses without a T/C. Other doses and runs of a compound stand elsewhere. T/C: endpoint of the treated group in % of that of the vehicle group. Some doses have a count of surviving animals in place of a T/C: the source holds a T/C of zero for them, seemingly a mark for toxic or unscored doses. Some survivor counts are full or nearly so, which does not show that the dose was tolerated: the source hardly ever lists a survival T/C far under the control, and the zero likely stands for such cases as well. Survivors were counted at the toxicity check, usually on the fifth day, unless a day is given; later deaths do not show. Schedule codes are those of the source, read here as Q, the interval in days (D) or hours (H), X, the number of doses. Some entries were tested several times; the results are listed from low to high. Some molecules as drawn cover several salts, stereoisomers or complexes of the source; a dose is that of the sample tested. For survival time, the PubChem record calls one and a half times the control and up active, and a quarter to a half above the control has no call in these data; cut-offs in other NCI protocols can differ. Some T/C values carry the count of animals alive at the toxicity check (mostly the fifth day); without a count, all were alive then.
System: P388 leukemia ip, CD2F1 mice, survival T/C
Assay: NCI In Vivo Anticancer Drug Screen. Data for tumor model P388 Leukemia (intraperitoneal) in CD2F1 (CDF1) mice
Conditions: T/C endpoint: median survival time, higher T/C = longer survival
[1] = dose: 200.0 mg/kg/injection, schedule: Q01DX009 (ip), vehicle: Klucel (hydroxypropylcellulose) (HPC)
[2] = dose: 100.0 mg/kg/injection, schedule: Q01DX005 (ip), vehicle: Klucel (hydroxypropylcellulose) (HPC)
[3] = dose: 200.0 mg/kg/injection, schedule: Q01DX005 (ip), vehicle: Klucel (hydroxypropylcellulose) (HPC)
[4] = dose: 200.0 mg/kg/injection, schedule: Q01DX009 (ip), vehicle: saline with Tween-80
[5] = dose: 200.0 mg/kg/injection, schedule: Q01DX009 (ip), vehicle: water
[6] = dose: 6.25 mg/kg/injection, schedule: Q01DX009 (ip), vehicle: water

C[N+](C)(C)CCC(=O)c1ccccc1
survivor count (dose: 50.0 mg/kg/injection, schedule: Q01DX009 (ip), vehicle: Klucel (hydroxypropylcellulose) (HPC)): 1 of 6 and 5 of 6 | survivor count (dose: 100.0 mg/kg/injection, schedule: Q01DX009 (ip), vehicle: Klucel (hydroxypropylcellulose) (HPC)): 0 of 6 | survivor count [1]: 0 of 6

CC[N+](CC)(CC)CC(=O)c1ccc(Br)cc1
survivor count (dose: 100.0 mg/kg/injection, schedule: Q01DX009 (ip), vehicle: saline): 2 of 6

COC(=O)C1c2cc3c(c(O)c2C(OC2OC(C)C(OC)C(C)(OC)C2OC)CC1(C)O)C(=O)c1c(O)cc2c(c1C3=O)OC1OC2(C)C(OC(C)=O)C(N(C)C)C1OC(C)=O (configuration not stated)
T/C (dose: 3.12 mg/kg/injection, schedule: Q04DX003 (ip), vehicle: other): 147 % of control | survivor count (dose: 6.25 mg/kg/injection, schedule: Q04DX003 (ip), vehicle: other): 5 of 6 | survivor count (dose: 12.5 mg/kg/injection, schedule: Q04DX003 (ip), vehicle: other): 1 of 6 and 3 of 6 | survivor count (dose: 25.0 mg/kg/injection, schedule: Q04DX003 (ip), vehicle: other): 0 of 6 and 1 of 6 | survivor count (dose: 50.0 mg/kg/injection, schedule: Q04DX003 (ip), vehicle: other): 0 of 6 and 1 of 5 | survivor count (dose: 100.0 mg/kg/injection, schedule: Q04DX003 (ip), vehicle: other): 1 of 6

Cc1c2cc[n+](Cc3ccc(I)cc3)cc2c(C)c2c1[nH]c1ccccc12
T/C (dose: 50.0 mg/kg/injection, schedule: Q04DX002 (ip), vehicle: saline with Tween-80): 140 % of control | T/C (dose: 94.0 mg/kg/injection, schedule: Q04DX002 (ip), vehicle: saline with Tween-80): 128 % of control | T/C (dose: 100.0 mg/kg/injection, schedule: Q04DX002 (ip), vehicle: saline with Tween-80): 133 % of control | T/C (dose: 200.0 mg/kg/injection, schedule: Q04DX002 (ip), vehicle: saline with Tween-80): 133 % of control [5 of 6 alive]

C=C(Cl)C(=NC(C)(C)C)Nc1cccc(Cl)c1
survivor count (dose: 50.0 mg/kg/injection, schedule: Q01DX005 (ip), vehicle: Klucel (hydroxypropylcellulose) (HPC)): 4 of 5 | survivor count [2]: 1 of 5 | survivor count [3]: 1 of 5

CCCCCCCCCCCCOC(=O)/C=C\C(=O)NC(N)=O
survivor count (dose: 400.0 mg/kg/injection, schedule: Q04DX002 (ip), vehicle: Klucel (hydroxypropylcellulose) (HPC)): 5 of 6

O=C(O)c1c2c(nc3ccccc13)Cc1ccccc1-2
T/C (dose: 50.0 mg/kg/injection, schedule: Q01DX009 (ip), vehicle: Klucel (hydroxypropylcellulose) (HPC), evaluated on day 30): 132 % of control | T/C (dose: 50.0 mg/kg/injection, schedule: Q01DX009 (ip), vehicle: Klucel (hydroxypropylcellulose) (HPC), evaluated on day 60): 133 % of control | T/C (dose: 50.0 mg/kg/injection, schedule: Q01DX009 (ip), vehicle: water): 130 % of control | T/C (dose: 100.0 mg/kg/injection, schedule: Q01DX009 (ip), vehicle: water): 138 % of control | T/C [4]: 125 % of control [5 of 6 alive] | T/C [5]: 135 % of control | survivor count [5]: 2 of 6 | survivor count (dose: 300.0 mg/kg/injection, schedule: Q01DX009 (ip), vehicle: Klucel (hydroxypropylcellulose) (HPC)): 0 of 6 | survivor count (dose: 300.0 mg/kg/injection, schedule: Q01DX009 (ip), vehicle: saline with Tween-80): 0 of 6 | survivor count (dose: 400.0 mg/kg/injection, schedule: Q01DX009 (ip), vehicle: water): 1 of 6

O=C(NCc1ccc(Cl)cc1)OCc1c2ccccc2cc2ccccc12
survivor count [1]: 6 of 6

CCC1C2Cc3ccc(O)cc3C1(C)CCN2C (configuration not stated)
survivor count [2]: 3 of 6 | survivor count [3]: 1 of 6

COC(OC)C(C)(C)NC1CCCCC1
survivor count (dose: 200.0 mg/kg/injection, schedule: Q01DX009 (ip), vehicle: saline): 0 of 6

O=C(OC1(c2nccc3ccccc23)CCN(CCc2ccccc2)CC1)c1ccccc1
survivor count (dose: 50.0 mg/kg/injection, schedule: Q01DX009 (ip), vehicle: saline with Tween-80): 6 of 6 | survivor count (dose: 100.0 mg/kg/injection, schedule: Q01DX009 (ip), vehicle: saline with Tween-80): 6 of 6 | survivor count [4]: 5 of 6

COc1cccc2c1C(=O)c1c(O)c3c(c(O)c1C2=O)C[C@@](O)(c1csc(N2CCN(C)CC2)n1)C[C@@H]3OC1CC(N)C(O)C(C)O1 (some centres not stated)
T/C (dose: 0.78 mg/kg/injection, schedule: Q01DX009 (ip), vehicle: water): 132 % of control | T/C (dose: 1.56 mg/kg/injection, schedule: Q01DX009 (ip), vehicle: water): 125 and 138 % of control | T/C (dose: 3.13 mg/kg/injection, schedule: Q01DX009 (ip), vehicle: water): 140 and 148 % of control | T/C [6]: 129 % of control | survivor count [6]: 4 of 6 and 6 of 6 | survivor count (dose: 12.5 mg/kg/injection, schedule: Q01DX009 (ip), vehicle: water): 5 of 6 | survivor count (dose: 25.0 mg/kg/injection, schedule: Q01DX009 (ip), vehicle: water): 4 of 6
